The results in this text go back to article PMC7065907.

The chains behind the UniProt entries cited, without tags or fusion partners. Where a name states a change or a piece, a line headed by the entry shows the natural chain unless it says otherwise.
UniProt Q9Y5T5: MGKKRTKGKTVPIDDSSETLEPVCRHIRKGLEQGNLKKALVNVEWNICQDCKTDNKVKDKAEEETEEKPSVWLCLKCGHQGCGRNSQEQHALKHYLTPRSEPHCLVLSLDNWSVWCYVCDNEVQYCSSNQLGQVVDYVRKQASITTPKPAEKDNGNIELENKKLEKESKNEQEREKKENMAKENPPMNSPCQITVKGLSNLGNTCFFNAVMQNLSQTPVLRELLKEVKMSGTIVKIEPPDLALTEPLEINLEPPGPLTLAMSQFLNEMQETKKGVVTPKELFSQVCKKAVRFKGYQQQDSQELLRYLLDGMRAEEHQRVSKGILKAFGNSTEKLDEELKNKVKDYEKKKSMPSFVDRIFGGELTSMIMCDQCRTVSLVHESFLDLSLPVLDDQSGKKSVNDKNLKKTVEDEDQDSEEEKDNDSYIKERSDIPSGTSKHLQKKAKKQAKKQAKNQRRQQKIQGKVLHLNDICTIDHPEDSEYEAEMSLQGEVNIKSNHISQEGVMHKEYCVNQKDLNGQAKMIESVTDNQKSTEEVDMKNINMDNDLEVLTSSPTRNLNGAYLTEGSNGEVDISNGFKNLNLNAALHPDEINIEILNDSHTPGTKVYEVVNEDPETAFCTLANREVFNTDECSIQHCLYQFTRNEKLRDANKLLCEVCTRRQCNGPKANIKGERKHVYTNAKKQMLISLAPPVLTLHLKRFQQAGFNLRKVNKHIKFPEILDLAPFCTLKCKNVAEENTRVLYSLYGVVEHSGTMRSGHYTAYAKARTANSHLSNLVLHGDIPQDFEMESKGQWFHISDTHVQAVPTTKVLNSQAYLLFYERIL

Assay in all cases: affinity purification with mass spectrometry; one-step StrepTactin affinity purification of the StHA-tagged bait from lysates of tetracycline-induced HEK293 cells (lysis buffer with 2 µM avidin), elution with 2.5 mM d-desthiobiotin, biological triplicates, filtered against the HASt-GFP control
One test deals with T1, RIOK1(kd)-StHA (human) (UniProt Q9BRS2).
T1 sequence: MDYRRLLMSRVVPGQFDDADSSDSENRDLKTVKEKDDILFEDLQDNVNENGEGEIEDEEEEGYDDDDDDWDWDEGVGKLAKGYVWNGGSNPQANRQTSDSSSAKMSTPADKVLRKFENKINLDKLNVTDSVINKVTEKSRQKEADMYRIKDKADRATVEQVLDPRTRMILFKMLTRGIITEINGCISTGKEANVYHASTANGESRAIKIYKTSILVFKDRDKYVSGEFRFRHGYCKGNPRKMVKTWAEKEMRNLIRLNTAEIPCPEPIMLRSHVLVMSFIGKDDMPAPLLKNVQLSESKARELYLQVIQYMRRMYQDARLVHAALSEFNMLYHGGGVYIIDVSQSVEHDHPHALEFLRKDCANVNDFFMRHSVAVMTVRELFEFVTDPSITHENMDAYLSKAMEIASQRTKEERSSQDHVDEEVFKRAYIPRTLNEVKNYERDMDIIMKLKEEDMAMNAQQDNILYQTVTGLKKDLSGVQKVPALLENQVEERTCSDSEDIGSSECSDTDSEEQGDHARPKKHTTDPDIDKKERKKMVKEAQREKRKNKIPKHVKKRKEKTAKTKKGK

Test [1] concerns the target USP16(C205S)-StHA (human) (UniProt Q9Y5T5).
Another test deals with USP16(WT)-StHA (human) (UniProt Q9Y5T5).

These are yes or no findings as the source states them, for the method shown. In cells and extracts the contact can be indirect. A yes stands for co-enrichment or nearness to the bait. Other partners may have been found.

B1: NOB1 (enzyme, UniProt Q9ULX3 1-412)
chain: MAPVEHVVADAGAFLRHAALQDIGKNIYTIREVVTEIRDKATRRRLAVLPYELRFKEPLPEYVRLVTEFSKKTGDYPSLSATDIQVLALTYQLEAEFVGVSHLKQEPQKVKVSSSIQHPETPLHISGFHLPYKPKPPQETEKGHSACEPENLEFSSFMFWRNPLPNIDHELQELLIDRGEDVPSEEEEEEENGFEDRKDDSDDDGGGWITPSNIKQIQQELEQCDVPEDVRVGCLTTDFAMQNVLLQMGLHVLAVNGMLIREARSYILRCHGCFKTTSDMSRVFCSHCGNKTLKKVSVTVSDDGTLHMHFSRNPKVLNPRGLRYSLPTPKGGKYAINPHLTEDQRFPQLRLSQKARQKTNVFAPDYIAGVSPFVENDISSRSATLQVRDSTLGAGRRRLNPNASRKKFVKKR
B1: the binding result (with RIOK1(kd)-StHA (human); in test [1]; in the test with USP16(WT)-StHA (human)) was “binds” in each case.

B2: NOP14 (protein, UniProt P78316 1-857)
chain: MAKAKKVGARRKASGAPAGARGGPAKANSNPFEVKVNRQKFQILGRKTRHDVGLPGVSRARALRKRTQTLLKEYKERDKSNVFRDKRFGEYNSNMSPEEKMMKRFALEQQRHHEKKSIYNLNEDEELTHYGQSLADIEKHNDIVDSDSDAEDRGTLSAELTAAHFGGGGGLLHKKTQQEGEEREKPKSRKELIEELIAKSKQEKRERQAQREDALELTEKLDQDWKEIQTLLSHKTPKSENRDKKEKPKPDAYDMMVRELGFEMKAQPSNRMKTEAELAKEEQEHLRKLEAERLRRMLGKDEDENVKKPKHMSADDLNDGFVLDKDDRRLLSYKDGKMNVEEDVQEEQSKEASDPESNEEEGDSSGGEDTEESDSPDSHLDLESNVESEEENEKPAKEQRQTPGKGLISGKERAGKATRDELPYTFAAPESYEELRSLLLGRSMEEQLLVVERIQKCNHPSLAEGNKAKLEKLFGFLLEYVGDLATDDPPDLTVIDKLVVHLYHLCQMFPESASDAIKFVLRDAMHEMEEMIETKGRAALPGLDVLIYLKITGLLFPTSDFWHPVVTPALVCLSQLLTKCPILSLQDVVKGLFVCCLFLEYVALSQRFIPELINFLLGILYIATPNKASQGSTLVHPFRALGKNSELLVVSAREDVATWQQSSLSLRWASRLRAPTSTEANHIRLSCLAVGLALLKRCVLMYGSLPSFHAIMGPLQALLTDHLADCSHPQELQELCQSTLTEMESQKQLCRPLTCEKSKPVPLKLFTPRLVKVLEFGRKQGSSKEEQERKRLIHKHKREFKGAVREIRKDNQFLARMQLSEIMERDAERKRKVKQLFNSLATQEGEWKALKRKKFKK
With B2, the binding entry (in test [1]; in the test with USP16(WT)-StHA (human)) was “binds weakly” each time.

B3: TSR1 (protein, UniProt Q2NL82 1-804)
chain: MAAHRPGPLKQQNKAHKGGRHRGRGSAQRDGKGRLALKTLSKKVRKELSRVDQRHRASQLRKQKKEAVLAEKRQLGGKDGPPHQVLVVPLHSRISLPEAMQLLQDRDTGTVHLNELGNTQNFMLLCPRLKHRWFFTSARPGDLHVVLDMAKVADTILFLLDPLEGWDSTGDYCLSCLFAQGLPTYTLAVQGISGLPLKKQIDTRKKLSKAVEKRFPHDKLLLLDTQQEAGMLLRQLANQKQQHLAFRDRRAYLFAHAVDFVPSEENNLVGTLKISGYVRGQTLNVNRLLHIVGYGDFQMKQIDAPGDPFPLNPRGIKPQKDPDMAMEICATDAVDDMEEGLKVLMKADPGRQESLQAEVIPDPMEGEQTWPTEEELSEAKDFLKESSKVVKKVPKGTSSYQAEWILDGGSQSGGEGDEYEYDDMEHEDFMEEESQDESSEEEEEYETMTIGESVHDDLYDKKVDEEAEAKMLEKYKQERLEEMFPDEVDTPRDVAARIRFQKYRGLKSFRTSPWDPKENLPQDYARIFQFQNFTNTRKSIFKEVEEKEVEGAEVGWYVTLHVSEVPVSVVECFRQGTPLIAFSLLPHEQKMSVLNMVVRRDPGNTEPVKAKEELIFHCGFRRFRASPLFSQHTAADKHKLQRFLTADMALVATVYAPITFPPASVLLFKQKSNGMHSLIATGHLMSVDPDRMVIKRVVLSGHPFKIFTKMAVVRYMFFNREDVLWFKPVELRTKWGRRGHIKEPLGTHGHMKCSFDGKLKSQDTVLMNLYKRVFPKWTYDPYVPEPVPWLKSEISSTVPQGGME
For the molecule B3, the binding result (with RIOK1(kd)-StHA (human); in test [1]; with USP16(WT)-StHA (human)) was “binds” throughout.

B4: LTV1 (protein, UniProt Q96GA3 1-475)
chain: MPHRKKKPFIEKKKAVSFHLVHRSQRDPLAADESAPQRVLLPTQKIDNEERRAEQRKYGVFFDDDYDYLQHLKEPSGPSELIPSSTFSAHNRREEKEETLVIPSTGIKLPSSVFASEFEEDVGLLNKAAPVSGPRLDFDPDIVAALDDDFDFDDPDNLLEDDFILQANKATGEEEGMDIQKSENEDDSEWEDVDDEKGDSNDDYDSAGLLSDEDCMSVPGKTHRAIADHLFWSEETKSRFTEYSMTSSVMRRNEQLTLHDERFEKFYEQYDDDEIGALDNAELEGSIQVDSNRLQEVLNDYYKEKAENCVKLNTLEPLEDQDLPMNELDESEEEEMITVVLEEAKEKWDCESICSTYSNLYNHPQLIKYQPKPKQIRISSKTGIPLNVLPKKGLTAKQTERIQMINGSDLPKVSTQPRSKNESKEDKRARKQAIKEERKERRVEKKANKLAFKLEKRRQEKELLNLKKNVEGLKL
With B4, the binding entry (in test [1]; with USP16(WT)-StHA (human)) was “binds” in each case.

B5: ENP1 (protein, UniProt Q13895 1-437)
chain: MPKFKAARGVGGQEKHAPLADQILAGNAVRAGVREKRRGRGTGEAEEEYVGPRLSRRILQQARQQQEELEAEHGTGDKPAAPRERTTRLGPRMPQDGSDDEDEEWPTLEKAATMTAAGHHAEVVVDPEDERAIEMFMNKNPPARRTLADIIMEKLTEKQTEVETVMSEVSGFPMPQLDPRVLEVYRGVREVLSKYRSGKLPKAFKIIPALSNWEQILYVTEPEAWTAAAMYQATRIFASNLKERMAQRFYNLVLLPRVRDDVAEYKRLNFHLYMALKKALFKPGAWFKGILIPLCESGTCTLREAIIVGSIITKCSIPVLHSSAAMLKIAEMEYSGANSIFLRLLLDKKYALPYRVLDALVFHFLGFRTEKRELPVLWHQCLLTLVQRYKADLATDQKEALLELLRLQPHPQLSPEIRRELQSAVPRDVEDVPITVE
As to B5, the binding result (in test [1]; in the test with USP16(WT)-StHA (human)) was “binds” in each case.
